No constants are given. Whether binding was seen depends on the method and setting. In cells and extracts the contact can be indirect. Some entries that bind do so weakly or less than the wild type.
Target: PSMD14 in LUAD cells (co-immunoprecipitation) (human (in human LUAD cell lines)) (UniProt O00487)
Test: co-IP; LUAD cells lysed in NP-40 buffer with protease inhibitors and 20 uM MG-132; cleared lysates; Western blot

Sequences of proteins named here, by UniProt entry; tags and fusion partners are left off.
UniProt O00487: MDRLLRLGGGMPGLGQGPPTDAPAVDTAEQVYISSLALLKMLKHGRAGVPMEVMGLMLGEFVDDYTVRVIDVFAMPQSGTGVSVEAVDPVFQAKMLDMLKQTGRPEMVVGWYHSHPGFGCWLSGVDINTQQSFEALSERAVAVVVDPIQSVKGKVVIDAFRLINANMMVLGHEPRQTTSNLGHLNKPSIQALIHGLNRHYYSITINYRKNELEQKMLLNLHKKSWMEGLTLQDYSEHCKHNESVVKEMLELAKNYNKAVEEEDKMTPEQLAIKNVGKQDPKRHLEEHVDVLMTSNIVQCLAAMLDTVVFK

binding: binds
B1: Hyaluronan-mediated motility receptor (HMMR) (protein, UniProt O75330 1-724)
chain: MSFPKAPLKRFNDPSGCAPSPGAYDVKTLEVLKGPVSFQKSQRFKQQKESKQNLNVDKDTTLPASARKVKSSESKESQKNDKDLKILEKEIRVLLQERGAQDRRIQDLETELEKMEARLNAALREKTSLSANNATLEKQLIELTRTNELLKSKFSENGNQKNLRILSLELMKLRNKRETKMRGMMAKQEGMEMKLQVTQRSLEESQGKIAQLEGKLVSIEKEKIDEKSETEKLLEYIEEISCASDQVEKYKLDIAQLEENLKEKNDEILSLKQSLEENIVILSKQVEDLNVKCQLLEKEKEDHVNRNREHNENLNAEMQNLKQKFILEQQEREKLQQKELQIDSLLQQEKELSSSLHQKLCSFQEEMVKEKNLFEEELKQTLDELDKLQQKEEQAERLVKQLEEEAKSRAEELKLLEEKLKGKEAELEKSSAAHTQATLLLQEKYDSMVQSLEDVTAQFESYKALTASEIEDLKLENSSLQEKAAKAGKNAEDVQHQILATESSNQEYVRMLLDLQTKSALKETEIKEITVSFLQKITDLQNQLKQQEEDFRKQLEDEEGRKAEKENTTAELTEEINKWRLLYEELYNKTKPFQLQLDAFEVEKQALLNEHGAAQEQLNKIRDSYAKLLGHQNLKQKIKHVVKLKDENSQLKSEVSKLRCQLAKKKQSETKLQEELNKVLGIKHFDPSKAFHHESKENFALKTPLKEGNTNCYRAPMECQESWK

From publication PMC12757429
